Consider one molecule from PMC5155539.

These are yes or no findings as the source states them, for the method shown. Binding seen in cells or lysates may run through a third protein. Here binding means that the protein was enriched with, or labelled near, the bait; the list need not be complete. For some assays here: Where a sequence is shown, tags or fusion partners need not be part of it.

The target of assay [1] is T1, ALADIN (endogenous) (human (endogenous in NCI-H295R)) (UniProt Q9NRG9).
T1 sequence: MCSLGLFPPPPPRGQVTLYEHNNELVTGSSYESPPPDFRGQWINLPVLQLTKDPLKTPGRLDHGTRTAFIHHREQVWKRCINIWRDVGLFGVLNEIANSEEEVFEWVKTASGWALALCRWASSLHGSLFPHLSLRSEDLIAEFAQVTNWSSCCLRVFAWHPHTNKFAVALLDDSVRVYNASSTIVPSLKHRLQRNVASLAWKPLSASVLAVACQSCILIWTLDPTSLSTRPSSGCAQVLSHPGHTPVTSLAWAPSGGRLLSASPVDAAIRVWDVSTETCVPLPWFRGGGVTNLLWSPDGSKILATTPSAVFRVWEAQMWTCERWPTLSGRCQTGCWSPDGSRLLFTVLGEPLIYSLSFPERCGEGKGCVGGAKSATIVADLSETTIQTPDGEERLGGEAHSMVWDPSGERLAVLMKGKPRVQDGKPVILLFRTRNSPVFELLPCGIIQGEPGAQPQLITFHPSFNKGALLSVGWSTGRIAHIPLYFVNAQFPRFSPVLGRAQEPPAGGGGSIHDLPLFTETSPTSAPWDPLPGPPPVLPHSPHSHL
The assay is described as follows: affinity purification with mass spectrometry; anti-ALADIN on Protein G UltraLink resin sepharose beads, NCI-H295R lysate (500 ug protein), normal mouse IgG as control; bound overnight; eluate analysed by tandem mass spectrometry; conducted once.

Assay [2] addresses T2, GFP-ALADIN fusion protein (human) (UniProt Q9NRG9).
T2 sequence: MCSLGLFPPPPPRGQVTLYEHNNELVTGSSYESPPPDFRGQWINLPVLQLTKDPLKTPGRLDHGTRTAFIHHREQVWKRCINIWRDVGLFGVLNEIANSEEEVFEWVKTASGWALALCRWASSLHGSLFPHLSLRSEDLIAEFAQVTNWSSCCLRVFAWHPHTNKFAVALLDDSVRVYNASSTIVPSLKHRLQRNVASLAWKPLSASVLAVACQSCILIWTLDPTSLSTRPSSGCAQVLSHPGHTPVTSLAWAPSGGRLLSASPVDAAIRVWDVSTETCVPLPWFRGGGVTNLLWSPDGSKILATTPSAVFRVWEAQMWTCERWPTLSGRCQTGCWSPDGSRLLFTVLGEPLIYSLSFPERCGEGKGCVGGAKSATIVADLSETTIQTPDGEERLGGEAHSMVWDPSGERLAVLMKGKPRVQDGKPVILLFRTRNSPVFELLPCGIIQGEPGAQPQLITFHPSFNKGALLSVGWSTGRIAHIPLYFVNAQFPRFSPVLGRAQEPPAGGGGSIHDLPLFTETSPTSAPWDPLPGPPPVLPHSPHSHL
The assay is described as follows: affinity purification with mass spectrometry; GFP-Trap_A agarose beads, whole cell lysates (500 ug protein) of NCI-H295R cells expressing GFP-ALADIN, GFP-expressing cells as control; bound overnight at 4°C; eluate analysed by tandem mass spectrometry; repeated three times.

B1: progesterone receptor membrane component 2 (PGRMC2), endogenous (protein, UniProt O15173 1-223)
chain: MAAGDGDVKLGTLGSGSESSNDGGSESPGDAGAAAEGGGWAAAALALLTGGGEMLLNVALVALVLLGAYRLWVRWGRRGLGAGAGAGEESPATSLPRMKKRDFSLEQLRQYDGSRNPRILLAVNGKVFDVTKGSKFYGPAGPYGIFAGRDASRGLATFCLDKDALRDEYDDLSDLNAVQMESVREWEMQFKEKYDYVGRLLKPGEEPSEYTDEEDTKDHNKQD
Turning to B1, the binding result in assay [1] and in assay [2] was “binds” each time.
